Measurements taken from the supplement of paper PMC11732987, “Enantioselective OTUD7B fragment discovery through chemoproteomics screening and high-throughput optimisation” (Communications Chemistry, 2025).
The other results are listed elsewhere or left out. The data scatter; read single values as rough.

Protein sequences, listed by entry. Tags and fused reporters are not part of them. Lines headed by an entry give the natural chain unless they say otherwise; changes in a name come on top. Residues count along the entry.
UniProt Q66K74: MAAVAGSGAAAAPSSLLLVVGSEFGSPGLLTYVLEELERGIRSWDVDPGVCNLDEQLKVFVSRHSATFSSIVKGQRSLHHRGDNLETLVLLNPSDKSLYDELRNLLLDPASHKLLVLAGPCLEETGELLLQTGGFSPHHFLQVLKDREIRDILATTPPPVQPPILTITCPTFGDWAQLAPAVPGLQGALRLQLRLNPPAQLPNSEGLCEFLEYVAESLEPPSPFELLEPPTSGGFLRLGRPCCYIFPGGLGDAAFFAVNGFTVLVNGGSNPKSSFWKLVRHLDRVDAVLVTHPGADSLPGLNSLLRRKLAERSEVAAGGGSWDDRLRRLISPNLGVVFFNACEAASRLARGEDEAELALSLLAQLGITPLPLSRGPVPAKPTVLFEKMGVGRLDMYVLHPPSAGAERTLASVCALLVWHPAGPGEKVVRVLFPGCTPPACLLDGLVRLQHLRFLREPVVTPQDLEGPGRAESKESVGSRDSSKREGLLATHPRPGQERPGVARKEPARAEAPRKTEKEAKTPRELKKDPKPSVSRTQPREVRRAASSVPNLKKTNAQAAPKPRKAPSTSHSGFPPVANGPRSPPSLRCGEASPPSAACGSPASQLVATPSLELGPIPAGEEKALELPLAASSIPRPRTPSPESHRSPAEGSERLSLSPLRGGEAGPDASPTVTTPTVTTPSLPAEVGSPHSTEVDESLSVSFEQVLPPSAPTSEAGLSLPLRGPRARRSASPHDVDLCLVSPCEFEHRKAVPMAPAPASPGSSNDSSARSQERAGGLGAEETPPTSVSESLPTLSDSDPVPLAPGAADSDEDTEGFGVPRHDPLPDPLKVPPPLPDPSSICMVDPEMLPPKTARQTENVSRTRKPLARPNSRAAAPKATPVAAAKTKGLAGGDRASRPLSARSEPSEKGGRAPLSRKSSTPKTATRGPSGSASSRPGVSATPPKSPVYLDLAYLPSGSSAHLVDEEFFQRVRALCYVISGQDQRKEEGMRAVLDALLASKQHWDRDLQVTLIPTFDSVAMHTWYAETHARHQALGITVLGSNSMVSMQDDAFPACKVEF
UniProt Q8N5G2, 298-320: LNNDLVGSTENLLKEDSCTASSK
UniProt Q96GW9: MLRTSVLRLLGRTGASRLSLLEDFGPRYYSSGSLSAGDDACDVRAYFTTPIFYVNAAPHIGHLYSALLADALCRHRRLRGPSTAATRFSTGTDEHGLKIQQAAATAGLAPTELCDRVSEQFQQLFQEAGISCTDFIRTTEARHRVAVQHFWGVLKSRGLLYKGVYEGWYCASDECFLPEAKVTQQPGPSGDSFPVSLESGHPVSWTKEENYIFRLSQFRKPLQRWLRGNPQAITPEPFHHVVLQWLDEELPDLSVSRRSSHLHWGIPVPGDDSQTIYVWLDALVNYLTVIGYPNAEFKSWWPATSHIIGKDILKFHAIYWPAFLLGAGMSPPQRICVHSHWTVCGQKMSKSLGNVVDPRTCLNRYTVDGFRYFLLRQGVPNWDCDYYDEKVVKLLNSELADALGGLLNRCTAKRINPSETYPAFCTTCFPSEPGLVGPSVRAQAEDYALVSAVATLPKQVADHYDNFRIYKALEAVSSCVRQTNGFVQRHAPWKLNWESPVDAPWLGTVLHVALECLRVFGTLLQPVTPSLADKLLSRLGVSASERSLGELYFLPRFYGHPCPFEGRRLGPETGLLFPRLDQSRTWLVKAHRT
UniProt Q8IWC1, 301-324: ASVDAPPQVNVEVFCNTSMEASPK
UniProt O94822: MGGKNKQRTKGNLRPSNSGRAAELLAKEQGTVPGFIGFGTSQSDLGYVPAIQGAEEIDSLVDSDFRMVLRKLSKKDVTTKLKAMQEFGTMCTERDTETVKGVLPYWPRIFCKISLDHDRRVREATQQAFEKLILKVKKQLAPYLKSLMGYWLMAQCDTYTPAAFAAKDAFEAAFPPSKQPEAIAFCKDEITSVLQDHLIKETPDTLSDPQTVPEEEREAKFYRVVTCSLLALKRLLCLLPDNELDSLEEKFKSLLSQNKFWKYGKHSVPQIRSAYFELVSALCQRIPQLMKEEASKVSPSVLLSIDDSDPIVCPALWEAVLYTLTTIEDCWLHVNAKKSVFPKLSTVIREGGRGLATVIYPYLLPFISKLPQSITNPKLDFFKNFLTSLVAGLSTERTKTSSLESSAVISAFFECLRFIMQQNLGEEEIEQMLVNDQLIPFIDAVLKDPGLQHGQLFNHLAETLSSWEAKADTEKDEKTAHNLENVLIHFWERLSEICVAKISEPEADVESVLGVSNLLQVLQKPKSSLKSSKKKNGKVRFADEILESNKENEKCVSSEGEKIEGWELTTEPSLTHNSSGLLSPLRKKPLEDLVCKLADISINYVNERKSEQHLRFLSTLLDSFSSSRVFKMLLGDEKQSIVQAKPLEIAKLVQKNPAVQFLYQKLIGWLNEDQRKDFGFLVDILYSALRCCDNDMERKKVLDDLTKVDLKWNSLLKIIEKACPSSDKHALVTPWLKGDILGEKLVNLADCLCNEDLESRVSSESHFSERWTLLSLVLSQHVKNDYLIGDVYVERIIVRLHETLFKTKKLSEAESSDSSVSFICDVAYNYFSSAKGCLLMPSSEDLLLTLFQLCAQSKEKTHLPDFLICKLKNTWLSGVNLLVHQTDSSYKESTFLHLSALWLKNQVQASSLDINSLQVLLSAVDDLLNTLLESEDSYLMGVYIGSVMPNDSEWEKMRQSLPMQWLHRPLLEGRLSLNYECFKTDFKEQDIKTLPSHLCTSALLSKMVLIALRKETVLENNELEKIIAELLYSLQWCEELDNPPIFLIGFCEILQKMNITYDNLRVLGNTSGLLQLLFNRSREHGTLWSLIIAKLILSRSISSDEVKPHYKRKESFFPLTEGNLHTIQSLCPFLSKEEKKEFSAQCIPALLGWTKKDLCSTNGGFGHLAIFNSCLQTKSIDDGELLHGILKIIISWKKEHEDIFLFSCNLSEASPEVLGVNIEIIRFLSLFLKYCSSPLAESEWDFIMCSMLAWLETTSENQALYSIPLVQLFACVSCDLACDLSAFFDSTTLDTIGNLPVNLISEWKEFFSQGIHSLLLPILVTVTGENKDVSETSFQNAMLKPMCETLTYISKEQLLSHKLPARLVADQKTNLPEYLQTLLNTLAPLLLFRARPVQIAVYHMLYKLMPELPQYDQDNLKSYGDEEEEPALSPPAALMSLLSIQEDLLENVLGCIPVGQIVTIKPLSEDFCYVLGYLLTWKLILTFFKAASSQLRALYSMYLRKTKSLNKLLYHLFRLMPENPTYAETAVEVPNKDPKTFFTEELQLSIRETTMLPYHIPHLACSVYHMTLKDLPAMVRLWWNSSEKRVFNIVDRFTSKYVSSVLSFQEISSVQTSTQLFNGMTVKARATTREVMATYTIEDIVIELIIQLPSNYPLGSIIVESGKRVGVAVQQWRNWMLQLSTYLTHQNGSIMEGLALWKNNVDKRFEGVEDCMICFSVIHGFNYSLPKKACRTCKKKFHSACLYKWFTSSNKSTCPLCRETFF
UniProt Q14566: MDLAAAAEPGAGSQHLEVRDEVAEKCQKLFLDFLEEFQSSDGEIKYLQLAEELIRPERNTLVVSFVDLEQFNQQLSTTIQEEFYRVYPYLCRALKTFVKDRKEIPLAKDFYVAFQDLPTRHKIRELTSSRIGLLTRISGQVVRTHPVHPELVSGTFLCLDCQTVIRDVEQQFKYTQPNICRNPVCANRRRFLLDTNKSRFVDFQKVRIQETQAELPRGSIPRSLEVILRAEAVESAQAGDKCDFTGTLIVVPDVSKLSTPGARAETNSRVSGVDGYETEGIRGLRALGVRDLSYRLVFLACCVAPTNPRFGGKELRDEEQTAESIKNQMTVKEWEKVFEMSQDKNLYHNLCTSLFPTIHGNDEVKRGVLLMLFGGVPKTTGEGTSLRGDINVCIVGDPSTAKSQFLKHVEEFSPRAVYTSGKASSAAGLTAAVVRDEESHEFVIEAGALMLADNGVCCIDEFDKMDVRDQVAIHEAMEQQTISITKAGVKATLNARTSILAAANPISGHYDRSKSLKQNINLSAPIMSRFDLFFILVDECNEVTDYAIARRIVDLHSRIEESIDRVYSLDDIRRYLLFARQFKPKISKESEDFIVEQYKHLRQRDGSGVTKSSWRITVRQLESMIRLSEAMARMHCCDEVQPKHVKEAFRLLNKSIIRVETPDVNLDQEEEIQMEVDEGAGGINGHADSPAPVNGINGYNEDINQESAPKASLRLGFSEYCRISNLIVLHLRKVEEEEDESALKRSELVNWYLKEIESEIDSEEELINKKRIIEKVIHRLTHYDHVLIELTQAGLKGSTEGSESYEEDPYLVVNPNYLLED
UniProt P45985: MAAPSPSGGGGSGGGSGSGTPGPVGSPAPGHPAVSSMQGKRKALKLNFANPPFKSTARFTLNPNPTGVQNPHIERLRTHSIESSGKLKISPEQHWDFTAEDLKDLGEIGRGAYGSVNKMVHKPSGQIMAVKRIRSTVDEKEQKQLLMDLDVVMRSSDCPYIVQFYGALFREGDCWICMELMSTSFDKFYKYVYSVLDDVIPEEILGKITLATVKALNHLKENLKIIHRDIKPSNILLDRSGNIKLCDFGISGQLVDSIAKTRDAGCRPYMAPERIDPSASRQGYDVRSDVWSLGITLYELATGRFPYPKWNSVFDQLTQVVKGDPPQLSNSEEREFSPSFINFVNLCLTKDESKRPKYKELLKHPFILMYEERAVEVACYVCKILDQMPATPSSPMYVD
UniProt Q3MHD2: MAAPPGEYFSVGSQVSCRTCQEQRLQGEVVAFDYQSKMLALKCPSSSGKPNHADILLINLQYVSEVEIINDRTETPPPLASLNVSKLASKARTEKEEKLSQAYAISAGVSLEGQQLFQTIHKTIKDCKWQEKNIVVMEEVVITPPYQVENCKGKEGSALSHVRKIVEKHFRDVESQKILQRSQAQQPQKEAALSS
UniProt Q9Y6R4: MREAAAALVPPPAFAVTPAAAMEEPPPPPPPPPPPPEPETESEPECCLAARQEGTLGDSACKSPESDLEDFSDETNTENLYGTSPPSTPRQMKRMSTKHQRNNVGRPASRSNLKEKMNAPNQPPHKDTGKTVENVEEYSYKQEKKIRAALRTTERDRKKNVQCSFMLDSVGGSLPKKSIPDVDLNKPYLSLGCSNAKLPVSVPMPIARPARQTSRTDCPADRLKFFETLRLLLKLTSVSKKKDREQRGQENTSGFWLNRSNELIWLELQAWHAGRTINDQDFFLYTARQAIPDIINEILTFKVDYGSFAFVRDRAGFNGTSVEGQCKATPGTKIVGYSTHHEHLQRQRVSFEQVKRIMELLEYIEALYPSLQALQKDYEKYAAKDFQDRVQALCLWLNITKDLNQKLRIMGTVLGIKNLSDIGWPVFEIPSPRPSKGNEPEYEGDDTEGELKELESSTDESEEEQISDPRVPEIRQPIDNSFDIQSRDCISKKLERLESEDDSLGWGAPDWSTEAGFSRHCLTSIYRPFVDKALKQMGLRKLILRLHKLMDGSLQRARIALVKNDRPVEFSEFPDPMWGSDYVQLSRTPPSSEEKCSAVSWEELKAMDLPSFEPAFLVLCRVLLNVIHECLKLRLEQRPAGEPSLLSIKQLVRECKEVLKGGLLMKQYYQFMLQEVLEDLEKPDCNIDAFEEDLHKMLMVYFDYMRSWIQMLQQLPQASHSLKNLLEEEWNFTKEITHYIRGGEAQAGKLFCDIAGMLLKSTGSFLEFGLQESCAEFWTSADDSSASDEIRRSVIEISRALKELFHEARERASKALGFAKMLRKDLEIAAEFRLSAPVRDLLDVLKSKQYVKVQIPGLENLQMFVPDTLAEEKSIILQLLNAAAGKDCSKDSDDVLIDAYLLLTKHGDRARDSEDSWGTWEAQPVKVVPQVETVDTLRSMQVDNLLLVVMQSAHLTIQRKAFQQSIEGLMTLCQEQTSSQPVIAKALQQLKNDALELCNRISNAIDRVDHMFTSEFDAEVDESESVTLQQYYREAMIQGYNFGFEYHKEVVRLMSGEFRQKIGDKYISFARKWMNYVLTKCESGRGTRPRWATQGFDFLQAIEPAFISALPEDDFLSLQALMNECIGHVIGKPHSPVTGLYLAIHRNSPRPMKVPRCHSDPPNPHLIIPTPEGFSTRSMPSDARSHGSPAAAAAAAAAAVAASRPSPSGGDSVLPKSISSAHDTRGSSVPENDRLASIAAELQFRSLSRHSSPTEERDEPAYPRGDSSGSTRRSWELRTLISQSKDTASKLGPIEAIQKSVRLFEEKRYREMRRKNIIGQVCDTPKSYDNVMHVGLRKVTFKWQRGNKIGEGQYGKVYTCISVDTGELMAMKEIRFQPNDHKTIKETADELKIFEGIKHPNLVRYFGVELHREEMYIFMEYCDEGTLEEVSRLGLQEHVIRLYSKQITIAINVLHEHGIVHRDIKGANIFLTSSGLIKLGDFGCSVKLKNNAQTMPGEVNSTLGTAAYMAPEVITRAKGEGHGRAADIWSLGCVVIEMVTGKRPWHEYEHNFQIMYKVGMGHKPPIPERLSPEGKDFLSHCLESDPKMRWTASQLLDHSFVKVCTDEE

How the values were obtained:
[1] = compound: ClCC(=O)N[C@@H]1CCCc2ccccc12; assay: log2 mean competition ratio of IA-DTB cysteine labelling (DMSO/compound) (log2 ratio); higher = stronger cysteine engagement by compound; conditions: treatment time: 4 h, cell line lysate: HEK293T
Procedure: (§1)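 IA-DTB competitive cysteine chemoproteomics in HEK293T RIPA lysate. Lysates were treated with compound 29 or 30 at 50 or 200 µM for 4 h, then IA-DTB (500 µM, 1 h), trypsin-digested, NeutrAvidin-enriched and analysed by diaPASEF. Competition ratio = intensity DMSO / intensity compound (n=4 treated, n=64 DMSO); binding: mean log2 CR ≥ 1 and p ≤ 0.05 plus QC filters. Target is the cysteine site.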

[2] = compound: ClCC(=O)N[C@H]1CCCc2ccccc12; assay: as above; conditions: treatment time: 4 h, cell line lysate: HEK293T
Procedure: as §1

## MAP1S C51 (UniProt Q66K74)
[1]; 50 µM
  log2 mean competition ratio: -0.327
[1]; 200 µM
  log2 mean competition ratio: -0.0776
[2]; 50 µM
  log2 mean competition ratio: -0.0997
[2]; 200 µM
  log2 mean competition ratio: -0.00352

## MAP3K20 C150 (UniProt Q9NYL2)
[1]; 50 µM
  log2 mean competition ratio: 0.0142
[1]; 200 µM
  log2 mean competition ratio: 0.0982
[2]; 50 µM
  log2 mean competition ratio: -0.283
[2]; 200 µM
  log2 mean competition ratio: -0.107

## MACO1 C315 (UniProt Q8N5G2)
[1]; 50 µM
  log2 mean competition ratio: -0.424
[1]; 200 µM
  log2 mean competition ratio: 0.399
[2]; 50 µM
  log2 mean competition ratio: -0.252
[2]; 200 µM
  log2 mean competition ratio: -0.0577

## LZTFL1 C35 (UniProt Q9NQ48)
[1]; 50 µM
  log2 mean competition ratio: -0.133
[1]; 200 µM
  log2 mean competition ratio: -0.058
[2]; 50 µM
  log2 mean competition ratio: -0.473
[2]; 200 µM
  log2 mean competition ratio: -0.09

## MARS2 C114 (UniProt Q96GW9)
[1]; 50 µM
  log2 mean competition ratio: -0.389
[1]; 200 µM
  log2 mean competition ratio: -0.00166
[2]; 50 µM
  log2 mean competition ratio: 0.202
[2]; 200 µM
  log2 mean competition ratio: -0.293

## MARK2 C723
[1]; 50 µM
  log2 mean competition ratio: 0.24
[1]; 200 µM
  log2 mean competition ratio: -0.103
[2]; 50 µM
  log2 mean competition ratio: -0.0301
[2]; 200 µM
  log2 mean competition ratio: -0.212

## MAP7D3 C315 (UniProt Q8IWC1)
[1]; 50 µM
  log2 mean competition ratio: -0.235
[1]; 200 µM
  log2 mean competition ratio: -0.0483
[2]; 50 µM
  log2 mean competition ratio: 0.209
[2]; 200 µM
  log2 mean competition ratio: -0.149

## MASTL C271 (UniProt Q96GX5)
[1]; 50 µM
  log2 mean competition ratio: -0.0637
[1]; 200 µM
  log2 mean competition ratio: -0.00374
[2]; 50 µM
  log2 mean competition ratio: -0.22
[2]; 200 µM
  log2 mean competition ratio: 0.35

## MAP7D2 C278
[1]; 50 µM
  log2 mean competition ratio: 0.183
[1]; 200 µM
  log2 mean competition ratio: 0.39
[2]; 50 µM
  log2 mean competition ratio: 0.0542
[2]; 200 µM
  log2 mean competition ratio: 0.0838

## LTN1 C869 (UniProt O94822)
[1]; 50 µM
  log2 mean competition ratio: -0.0267
[1]; 200 µM
  log2 mean competition ratio: 0.208
[2]; 50 µM
  log2 mean competition ratio: -0.335
[2]; 200 µM
  log2 mean competition ratio: 0.104

## LRRTM4 C339
[1]; 50 µM
  log2 mean competition ratio: -0.0288
[1]; 200 µM
  log2 mean competition ratio: 0.128
[2]; 50 µM
  log2 mean competition ratio: 0.237
[2]; 200 µM
  log2 mean competition ratio: 0.347

## MCM6 C185 (UniProt Q14566)
[1]; 50 µM
  log2 mean competition ratio: 0.0559
[1]; 200 µM
  log2 mean competition ratio: 0.205
[2]; 50 µM
  log2 mean competition ratio: -0.0238
[2]; 200 µM
  log2 mean competition ratio: 0.213

## MAP2K4 C266 (UniProt P45985)
[1]; 50 µM
  log2 mean competition ratio: 0.377
[1]; 200 µM
  log2 mean competition ratio: 0.391
[2]; 50 µM
  log2 mean competition ratio: 0.155
[2]; 200 µM
  log2 mean competition ratio: 0.31

## LSM12 C17 (UniProt Q3MHD2)
[1]; 50 µM
  log2 mean competition ratio: 0.428
[1]; 200 µM
  log2 mean competition ratio: 0.399
[2]; 50 µM
  log2 mean competition ratio: -0.434
[2]; 200 µM
  log2 mean competition ratio: -0.0106

## MAP3K4 C998 (UniProt Q9Y6R4)
[1]; 50 µM
  log2 mean competition ratio: -0.398
[1]; 200 µM
  log2 mean competition ratio: -0.0591
[2]; 50 µM
  log2 mean competition ratio: -0.172
[2]; 200 µM
  log2 mean competition ratio: -0.0715

## LTN1 C498 (UniProt O94822)
[1]; 50 µM
  log2 mean competition ratio: -0.202
[1]; 200 µM
  log2 mean competition ratio: -0.3
[2]; 50 µM
  log2 mean competition ratio: 0.655
[2]; 200 µM
  log2 mean competition ratio: -0.133

## MAP3K4 C1322 (UniProt Q9Y6R4)
[1]; 50 µM
  log2 mean competition ratio: -0.0584
[1]; 200 µM
  log2 mean competition ratio: -0.0351
[2]; 50 µM
  log2 mean competition ratio: -0.585
[2]; 200 µM
  log2 mean competition ratio: 0.00489
